Reference: PubChem BioAssay AID1259254 (NCATS, 2017)
Screen: 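Finding genes that stop cells copying their DNA twice in one cycle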 (primary screen). Cells: human HCT116 colorectal cancer cells. Reagent: single siRNA against human genes. Time to read-out: 3 days. Measurement: 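Imaged Hoechst DNA stain sorts each cell into a cycle phase by DNA amount; per plate, G2 fraction set to 0% for non-targeting and 100% for GMNN siRNA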. Reading the numbers: G2 robust z-score and G2 cells, % of GMNN control: higher = more G2 cells, more excess DNA replication. Call rule: 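Active siRNAs have a G2 robust z of 5 or more median absolute deviations over the median, which in these data means about 38% or higher of GMNN control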.
This is an unselected part of about 59,000 deposited reagents. In the full data, about 1,550 (2.6%) were called active. 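G2 share is only a proxy for re-replication; each gene was hit by three separate siRNAs, and active genes were retested.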 A number with no mark means an inactive call. Reagents against one gene are numbered here. Not all columns of the deposit are shown. Not stated in the record: the amount of reagent.

ZFP64 #1 — G2 robust z-score: -0.832; G2 cells, % of GMNN control: -2.89
ZFP64 #2 — G2 robust z-score: -0.763; G2 cells, % of GMNN control: -2.4
ZFP64 #3 — G2 robust z-score: -0.515; G2 cells, % of GMNN control: -0.656
LINC00518 #1 — G2 robust z-score: 0.554; G2 cells, % of GMNN control: 6.87
LINC00518 #2 — G2 robust z-score: -0.898; G2 cells, % of GMNN control: -3.35
LINC00518 #3 — G2 robust z-score: -0.211; G2 cells, % of GMNN control: 1.48

2 entries from above in another layout:
LINC00518 #1
- G2 robust z-score: 0.554
- G2 cells, % of GMNN control: 6.87

LINC00518 #2
- G2 robust z-score: -0.898
- G2 cells, % of GMNN control: -3.35

The listing continues.
RER1 #1 — G2 robust z-score: 4.05; G2 cells, % of GMNN control: 31.5
RER1 #2 — G2 robust z-score: 1.33; G2 cells, % of GMNN control: 12.3
RER1 #3 — G2 robust z-score: 0.411; G2 cells, % of GMNN control: 5.86
TMCC1 #1 — G2 robust z-score: 0.75; G2 cells, % of GMNN control: 8.25
TMCC1 #2 — G2 robust z-score: 0.432; G2 cells, % of GMNN control: 6.01
TMCC1 #3 — G2 robust z-score: 1.79; G2 cells, % of GMNN control: 15.6
